The assay in a line: IkB Signaling. The settings on record: ABC-DLBCL IkBa-CBG/CBR dual luciferase ratio (green luciferase fused to IkBa over red control in OCI-Ly3 lymphoma cells), 4 h. An outline of the steps:
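In this assay, an IκBα–CBG68 fusion accumulates when IKK-driven degradation is blocked; native CBR normalizes for cell number. OCI-Ly3 cells were treated 4 h with compound and doxycycline, then green and red light read after Chroma-Glo addition.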

The mark [1] stands for this setting: measured here: control luc red channel unless noted.
Setting [2] is: measured here: IkB-luc green channel.
Where [3] appears, read: measured here: control luc red channel.

The other results are listed elsewhere or left out. Further columns of the screen follow, without active or inactive calls. The list favours compounds with an active or inconclusive main result. Potencies come from curve fits of mixed quality, noted in brackets.

In the case of `CCOc1ccc(N(CC)S(=O)(=O)c2cc(Br)cc3c2N(C(C)=O)C(C)C3)cc1` (centres undefined), the AC50 under setting [1] is 7.94 µM [falling, full curve].

As to `COc1ccc(-c2cn(-c3ccc(C)cc3)c(S(=O)(=O)CC(=O)Nc3ccc(F)cc3)n2)cc1`, the AC50 under setting [1] is 5.01 µM [falling, partial curve].

For the compound `N#Cc1cc2ccccc2nc1SCc1ccccn1`, the AC50 under setting [1] is 0.0794 µM [falling, full curve, poor fit].

In the case of `O=C(Nc1ccc(Cl)c(Cl)c1)N1CCSC1c1ccco1` (centres undefined), the AC50 under setting [1] was 20 µM [falling, partial curve].

As to `CCOc1ccc(CCNC(=O)c2cc3c(=O)oc4ccc(C)cc4c3s2)cc1OCC`, under setting [1], the AC50 was 1.26 µM [rising, full curve, poor fit].

For the compound `CS(=O)(=O)N(CC(O)Cn1c2ccccc2c2ccccc21)c1ccccc1` (centres undefined), the AC50 under setting [1] was 15.8 µM [falling, partial curve].

As for `CCOC(=O)c1sc(=S)n(CC)c1N`, the concentration at half-maximal activity (AC50) under setting [1] is 31.6 µM [rising, partial curve].

For the compound `CCSc1nc2c([nH]c3ccccc32)c(=O)n1CC`, under setting [1], the AC50 is 7.94 µM [rising, full curve, poor fit].

`O=C(NCc1ccccc1Cl)c1cc2c(s1)-c1ccc(Cl)cc1SC2`: under setting [1], the AC50 is 25.1 µM [falling, single point].

In the case of `CC(=O)N1CCc2c(sc(NC(=O)CSc3ccccc3)c2-c2nc3ccccc3s2)C1`, the AC50 under setting [1] was 39.8 µM [falling, single point].

As for `CCOC(=O)CCCSc1nc2sc(C)c(C)c2c(=O)[nH]1`, the AC50 under setting [1] was 0.158 µM [falling, full curve].

For `O=C(COc1ccc(Br)cc1CO)Nc1ccc(F)cc1`, the AC50 under setting [1] was 20 µM [falling, single point].

As for `Cc1nc2ccc(S(=O)(=O)N(CC(=O)Nc3ccc(F)cc3F)Cc3ccccc3)cc2s1`, the AC50 under setting [1] was 20 µM [falling, partial curve].

`NC(=O)c1sc2nc(N3CCCCC3)c3c(c2c1N)CCCC3`: the AC50 under setting [1] is 7.94 µM [falling, partial curve].

For the compound `CCOc1ccc(NC(=O)c2ccc3[nH]c(C)c(C)c3c2)cc1`, the AC50 under setting [1] was 12.6 µM [falling, partial curve].

In the case of `O=S(=O)(NCCc1csc(-c2ccccc2)n1)c1ccc2c(c1)OCCO2`, the AC50 under setting [1] was 31.6 µM [falling, single point].

For `Cc1ccc(S(=O)(=O)Nc2cccc(-c3cn4cccc(C)c4n3)c2)c(C)c1`, the AC50 under setting [1] is 20 µM [falling, partial curve].

In the case of `Cc1ccccc1NC(=O)Cn1cc(C(=O)c2cccs2)c2ccccc21`, the AC50 under setting [1] is 7.94 µM [falling, partial curve].

Take `CCc1ccc(NC(=O)CSC2=Nc3ccccc3C3=NC(CCC(=O)NCc4ccccc4)C(=O)N23)cc1` (centres undefined): the AC50 under setting [1] was 39.8 µM [falling, single point].

For `CCCCC(=O)OC1=C(C(=O)c2ccccc2)N(CCC)S(=O)(=O)c2ccccc21`, the concentration at half-maximal activity (AC50) under setting [1] was 10 µM [falling, partial curve].

For the compound `CC(NC(=O)CSc1n[nH]c(-c2ccccc2Cl)n1)c1nc2ccccc2[nH]1` (centres undefined), the AC50 under setting [1] was 3.98 µM [falling, partial curve].

Turning to `CS(=O)(=O)Nc1cccc(-c2ccc3ncnc(NCCN4CCOCC4)c3c2)c1`, the AC50 under setting [1] was 3.16 µM [rising, partial curve].

With `Cc1ccsc1CN1CCc2nc(Nc3ccccc3)ncc2C1`, the AC50 under setting [1] was 39.8 µM [falling, single point].

For `O=C1CCCc2cc(S(=O)(=O)N3CCCC(C(=O)NCc4ccccc4)C3)ccc2N1` (centres undefined), under setting [1], the AC50 is 0.00631 µM [falling, full curve, poor fit].

`CCOc1ccc(C(=O)Nc2cccc(-c3nc4cccnc4o3)c2)cc1Cl`: under setting [1], the AC50 was 6.31 µM [falling, full curve].

For `COc1cccc(NC(=O)CCNS(=O)(=O)c2ccc3c(c2)oc(=O)n3C)c1`, the AC50 under setting [1] is 20 µM [falling, partial curve].

As for `Cc1cc(C)c2c(=O)n(CC(=O)NCCCN3CCN(c4ccccc4F)CC3)sc2n1`, the AC50 was 3.16 µM [falling, single point] under setting [2] and 25.1 µM [falling, single point] under setting [3].

Consider `CCOc1ccc(NS(=O)(=O)c2cc3c(cc2Cl)NC(=O)CO3)cc1`, for which the AC50 under setting [1] is 20 µM [falling, partial curve, poor fit].

On to `Cc1cc(C)c(NC(=O)CCS(=O)(=O)c2cc3c(cc2Cl)NC(=O)CO3)c(C)c1`, for which, under setting [1], the AC50 is 39.8 µM [falling, single point].

With `O=C(CSCn1nnc2c(=O)[nH]c(Cc3ccc(F)cc3)nc21)Nc1cccc(C(F)(F)F)c1`, under setting [1], the AC50 was 31.6 µM [falling, single point].

`COc1cc2c(cc1OC)C(COc1cccc(C(F)(F)F)c1)N(C(=O)c1ccc(S(=O)(=O)N3CCCC3)cc1)CC2` (centres undefined): the AC50 under setting [1] is 39.8 µM [falling, single point].

For the compound `O=C(Nc1ccc2c(c1)oc1ccccc12)c1ccc(Br)o1`, under setting [1], the concentration at half-maximal activity (AC50) was 10 µM [falling, partial curve].

On to `Cc1ccc(CCNC(=O)CS(=O)Cc2nc(-c3ccccc3Cl)oc2C)cc1` (centres undefined), for which the AC50 under setting [1] is 31.6 µM [falling, single point].

With `COc1ccc(CNC(=O)C(c2cccs2)N(C(=O)c2csnn2)C2CC2)cc1` (centres undefined), the AC50 under setting [2] was 6.31 µM [rising, single point] and the AC50 under setting [3] was 15.8 µM [falling, partial curve].

Turning to `Cc1ccc2oc(C(=O)Nc3cccc(Cl)c3)cc(=O)c2c1`, under setting [1], the AC50 is 0.631 µM [rising, full curve].

`COc1ccccc1C(=O)Nc1ccccc1OCc1cc(=O)n2ccccc2n1`: the AC50 under setting [1] is 3.98 µM [falling, partial curve].

Turning to `COc1ccc(CNc2nc3c(-c4ccccc4)nnn3c3ccccc23)cc1`, under setting [1], the AC50 is 0.631 µM [falling, full curve].

Consider `CCNc1nc(NCc2ccc(F)cc2)c2cnn(C)c2n1`, for which the AC50 under setting [1] is 15.8 µM [falling, single point].

With `O=S(=O)(NCCS(=O)(=O)N1CCN(c2ccccc2)CC1)c1ccc(Br)cc1`, under setting [1], the AC50 is 1.58 µM [falling, full curve, poor fit].

Consider `CN(C)c1ccc(NC(=O)CN2C(=O)c3ccccc3Sc3ccc(C(=O)N4CCCC4)cc32)cc1`, for which, under setting [1], the AC50 was 1 µM [rising, full curve].

With `CCOC(=O)C1CCN(C(=O)Cn2ncc3c4ccccc4n(Cc4ccccc4F)c3c2=O)CC1`, the half-maximal activity concentration (AC50) under setting [1] is 25.1 µM [falling, single point].

With `CCN(C(=O)c1cccn(Cc2ccccc2C)c1=O)c1ccccc1`, the AC50 under setting [1] was 7.94 µM [falling, single point].

On to `Cc1ccc(NC(=O)CN2C(=O)CCn3nc(-c4cccn4C)cc32)c(Cl)c1`, for which, under setting [1], the concentration at half-maximal activity (AC50) is 0.0316 µM [rising, full curve, poor fit].

As for `CCc1nc(OCc2ccco2)c2sc3nc4c(cc3c2n1)COC(C)(C)C4`, the AC50 under setting [1] is 12.6 µM [falling, partial curve].

For `COc1ccc(N2CCN(CC(=O)Nc3c(C)cc(C)cc3C)CC2)cc1`, the AC50 under setting [1] is 25.1 µM [falling, partial curve].

For `Cc1ccc(F)cc1NC(=O)c1ccc(Cn2nc(N3CCN(c4ccccc4)CC3)ccc2=O)o1`, under setting [1], the AC50 was 39.8 µM [falling, single point].

Consider `COc1ccccc1S(=O)(=O)Cc1ccc(C(=O)N2CCN(c3cccc(Cl)c3)CC2)o1`, for which the AC50 under setting [1] was 7.94 µM [falling, partial curve].

For `Cc1cccc(NC(=O)C2CCN(S(=O)(=O)c3cccc4cccnc34)CC2)n1`, the half-maximal activity concentration (AC50) under setting [1] was 15.8 µM [falling, partial curve].

In the case of `COC(=O)c1cnn(-c2ccc(C(=O)Nc3ccc(OC(F)(F)F)cc3)cc2)c1N`, under setting [1], the AC50 is 39.8 µM [falling, single point].

As for `OC[C@@H]1O[C@@H](n2cnc3cncnc32)[C@@H](O)[C@H]1O`, the concentration at half-maximal activity (AC50) under setting [1] is 31.6 µM [falling, partial curve, poor fit] [measured here: IkB-luc green channel].

As to `CC(NC(=O)c1c2c(nc3ccccc13)C(=O)N(C1CCCCC1)C2)c1ccccc1` (centres undefined), the AC50 under setting [1] is 10 µM [falling, partial curve].

For the compound `CN(C)S(=O)(=O)c1ccc2c(c1)N(CC(=O)N1CCN(c3cccc(Cl)c3)CC1)CCS2`, under setting [1], the AC50 was 2 µM [falling, full curve].

For the compound `COc1cc(NC(=O)Nc2nnc(N3CCCCCC3)s2)cc(OC)c1`, under setting [1], the AC50 was 25.1 µM [falling, single point].

Turning to `CC1CCCN(Cc2c(O)ccc3c(=O)c(Oc4ccc(C(C)(C)C)cc4)c(C(F)(F)F)oc23)C1` (centres undefined), under setting [1], the AC50 was 12.6 µM [falling, partial curve].

In the case of `COc1cc(NC(=O)Cn2ncc3c2-c2ccccc2OC3)cc(OC)c1OC`, the AC50 under setting [1] was 20 µM [falling, partial curve].

Take `Nc1cccc2c(N)cccc12`: the AC50 under setting [1] was 31.6 µM [rising, partial curve] [measured here: IkB-luc green channel].

`O=C(Cn1cc(SCc2ccccc2)c2ccccc21)N1CCCCCC1`: the half-maximal activity concentration (AC50) under setting [1] is 15.8 µM [falling, partial curve].

With `COc1cccc(CNc2ccc(N3CCCCC3)cc2)c1OC`, the AC50 under setting [1] is 12.6 µM [falling, partial curve].

For `Cc1nnc(SCCC(=O)Nc2nc(-c3ccccc3)ns2)s1`, the half-maximal activity concentration (AC50) under setting [1] is 31.6 µM [falling, single point].

Turning to `Cc1ccc(N2CCN(c3c(CN4CCCC4)c(=O)oc4ccccc34)CC2)c(C)c1`, the half-maximal activity concentration (AC50) under setting [1] is 3.98 µM [falling, partial curve].

`COCCCNC(=O)c1c(NC(=O)c2cc(=O)c3ccccc3o2)sc2c1CCCC2`: the AC50 under setting [1] was 1.58 µM [falling, full curve].

For `Cc1ccc2nc(-c3ccc(Cl)c(NC(=O)c4cccc([N+](=O)[O-])c4C)c3)oc2c1`, the AC50 under setting [1] is 0.794 µM [falling, partial curve].

For orientation: AC50 means the concentration at which the activity in the assay is half-maximal.

Source of the values: PubChem BioAssay AID445 (National Center for Advancing Translational Sciences (NCATS), 2006).
